Experimental data published in the supplement of paper PMC4604168 (melanoma cell lines).
This is one part of the list. Single values are uncertain, as repeats are few or missing.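 Imaging used 1,536-well plates; nuclei positive for cleaved PARP by antibody were divided by total DNA-stained nuclei to yield the apoptosis fraction. Doses for screening kept most cells viable, and cell lines differ markedly in resting and induced cleaved-PARP levels.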

system: MZ2-MEL; assay: cleaved PARP positive nuclei fraction relative to DMSO control; melanoma cells; higher = more apoptosis; details: library dose: low library concentration; 72 h

SMILES	cleaved PARP positive nuclei fraction
Cn1cc(C2=C(c3cn(C4CCN(Cc5ccccn5)CC4)c4ccccc34)C(=O)NC2=O)c2ccccc21 [Enzastaurin] + COc1ccc(COc2ccc(Cc3cnc(N)nc3N)cc2OC)cc1 [GW2580] (first compound 0.8 µM, partner dose 1 µM)	118%
Cn1cc(C2=C(c3cn(C4CCN(Cc5ccccn5)CC4)c4ccccc34)C(=O)NC2=O)c2ccccc21 [Enzastaurin] + c1cc(-c2cnn3cc(-c4ccc(OCCN5CCCCC5)cc4)cnc23)ccn1 [Dorsomorphin] (first compound 0.8 µM, partner dose 0.4 µM)	30.1%
C[As](C)SC[C@H](NC(=O)CC[C@H](N)C(=O)O)C(=O)NCC(=O)O [Darinaparsin] + C=CCn1c(=O)c2cnc(Nc3ccc(N4CCN(C)CC4)cc3)nc2n1-c1cccc(C(C)(C)O)n1 [MK1775] (first compound 0.4 µM, partner dose 0.02 µM)	93.7%
Cn1cc(C2=C(c3cn(C4CCN(Cc5ccccn5)CC4)c4ccccc34)C(=O)NC2=O)c2ccccc21 [Enzastaurin] + OCCn1cc(-c2cnc3nnn(Cc4ccc5ncccc5c4)c3n2)cn1 [PF04217903] (first compound 0.8 µM, partner dose 1 µM)	92.2%
N.N.[Cl][Pt][Cl] [cisplatin] + CN(NC(=O)CC(=O)NN(C)C(=S)c1ccccc1)C(=S)c1ccccc1 [STA4783] (first compound 1.6 µM, partner dose 0.006 µM)	107%
